Results reported in patent publication US6017692.
Weaker means in comparison with the reference protein, sequence or condition of that experiment.

Sequences of proteins named here, by UniProt entry; tags and fusion partners are left off. Residues count along the entry.
UniProt P01106, 357-454: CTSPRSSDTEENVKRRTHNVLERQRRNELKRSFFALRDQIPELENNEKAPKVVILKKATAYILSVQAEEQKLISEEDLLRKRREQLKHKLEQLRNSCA

Target: c-Myc bHLH-Zip (Homo sapiens) (UniProt P01106)
Experiment: EMSA
Settings: very small amount of complex c with 300 ng protein; 10 mM Tris pH 7.4, 80 mM NaCl, room temperature; purified recombinant protein; label: 32P 5' end

“GGAAGCAGACCACGTGGTCTGCTTCC (double strand) [Myc-Max consensus site oligonucleotide]”: binds more weakly.
